These are yes or no findings as the source states them, for the method shown. In cells and extracts the contact can be indirect. A result given as binding can be weak or reduced; the word gives no strength. Where a sequence is shown, tags or fusion partners need not be part of it.
Experiments:
Experiment in all cases: co-IP; U2OS cells transfected with Flag-Fbxl8 or Flag-Fbxw7 along with V5-c-myc or phosphomutants, MG132 (20 μM) for 6 hours; precipitated with anti-V5 beads; western blot
[1] = molecular target: V5 tagged wild-type c-myc (pD40-His/V5-c-Myc WT) (UniProt P01106)
[2] = molecular target: V5 tagged c-myc-S62A (pD40-His/V5-c-MycS62A)
[3] = molecular target: V5 tagged c-myc-T58A (pD40-His/V5-c-MycT58A)

Amino acid sequences for entries named in this document (tags omitted). A change or cut given only in a name is not applied to a line headed by its entry.
UniProt P01106: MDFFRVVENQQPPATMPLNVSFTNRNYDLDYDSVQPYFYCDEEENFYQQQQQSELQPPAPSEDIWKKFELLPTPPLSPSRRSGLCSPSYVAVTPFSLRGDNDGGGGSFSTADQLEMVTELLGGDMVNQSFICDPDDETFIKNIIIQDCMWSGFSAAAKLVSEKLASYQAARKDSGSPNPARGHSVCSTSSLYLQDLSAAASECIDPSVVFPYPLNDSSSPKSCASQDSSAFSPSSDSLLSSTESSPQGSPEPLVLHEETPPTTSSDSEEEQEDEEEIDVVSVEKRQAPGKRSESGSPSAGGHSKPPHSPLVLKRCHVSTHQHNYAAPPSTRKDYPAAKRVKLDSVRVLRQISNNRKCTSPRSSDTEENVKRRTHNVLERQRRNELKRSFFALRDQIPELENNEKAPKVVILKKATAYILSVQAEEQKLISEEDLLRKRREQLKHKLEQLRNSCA
UniProt Q969H0: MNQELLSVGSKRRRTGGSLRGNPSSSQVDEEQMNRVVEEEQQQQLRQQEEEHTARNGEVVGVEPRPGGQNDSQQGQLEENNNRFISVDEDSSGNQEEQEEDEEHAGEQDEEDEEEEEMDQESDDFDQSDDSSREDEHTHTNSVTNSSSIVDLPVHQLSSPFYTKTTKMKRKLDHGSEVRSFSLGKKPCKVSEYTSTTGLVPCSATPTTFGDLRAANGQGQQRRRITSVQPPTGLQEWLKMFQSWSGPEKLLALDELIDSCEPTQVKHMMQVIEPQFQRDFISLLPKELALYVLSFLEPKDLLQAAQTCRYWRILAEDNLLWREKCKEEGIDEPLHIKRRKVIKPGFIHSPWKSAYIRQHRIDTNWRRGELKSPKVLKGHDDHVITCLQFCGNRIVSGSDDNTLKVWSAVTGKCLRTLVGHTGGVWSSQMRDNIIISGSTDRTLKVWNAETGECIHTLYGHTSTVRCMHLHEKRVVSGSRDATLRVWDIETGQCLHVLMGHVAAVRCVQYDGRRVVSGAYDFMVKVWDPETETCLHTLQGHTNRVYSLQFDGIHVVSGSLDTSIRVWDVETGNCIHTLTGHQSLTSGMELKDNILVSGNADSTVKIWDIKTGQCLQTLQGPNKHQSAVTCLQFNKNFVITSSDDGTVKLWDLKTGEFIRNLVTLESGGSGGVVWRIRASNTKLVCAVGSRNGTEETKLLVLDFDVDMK

binding [1]	binding [2]	binding [3]	Molecule
binds	–	–	Flag-Fbxw7 (from UniProt Q969H0 1-707)
binds	binds	binds	Flag-Fbxl8 (F-box and Leucine Rich Repeat Protein 8), wild type, expressed in U2OS cells (protein, UniProt Q96CD0 1-374) MAEPGEGLPEEVLALIFRHLSLRDRAAAARVCRAWAAAATCSAVWHDTKISCECELEGMLPPYLSACLDHIHNLRLEFEPSRKPSRRAAIELLMVLAGRAPGLRGLRLECRGEKPLFDAGRDVLEAVHAVCGAASQLRHLDLRRLSFTLDDALVLQAARSCPELHSLFLDNSTLVGSVGPGSVLELLEACPRLRALGLHLASLSHAILEALAAPDRAPFALLALRCACPEDARASPLPNEAWVALRRRHPGLAVELELEPALPAESVTRVLQPAVPVAALRLNLSGDTVGPVRFAAHHYAATLCALEVRAAASAELNAALEELAARCAALREVHCFCVVSHSVLDAFRAHCPRLRTYTLKLTREPHPWRPTLVA

— article PMC9037475
